Measurements reported in patent publication US20060211117.
Protein sequences can lack the tags named with them.

Biological target: T1, Cre recombinase (UniProt P06956)
T1 sequence (looked up, limits assumed): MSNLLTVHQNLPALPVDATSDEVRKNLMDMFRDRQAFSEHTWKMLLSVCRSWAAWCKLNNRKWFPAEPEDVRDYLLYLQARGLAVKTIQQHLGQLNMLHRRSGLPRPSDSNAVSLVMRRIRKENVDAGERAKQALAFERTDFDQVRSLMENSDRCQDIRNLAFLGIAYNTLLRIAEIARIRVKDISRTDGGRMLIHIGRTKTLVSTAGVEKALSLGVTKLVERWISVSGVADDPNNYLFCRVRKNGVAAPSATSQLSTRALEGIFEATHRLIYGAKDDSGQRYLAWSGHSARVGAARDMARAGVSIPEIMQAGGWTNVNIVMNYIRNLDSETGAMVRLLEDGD
Assay: activity in cells
Details: recombines with N2; higher minicircle yield than wild type loxP; protein in cells; variant of loxP wild type (pDlox3/pNIXluc); only the site is given

TACCGTTCGTATAGCATACATTATACGAAGTTAT (double strand) [mutant loxP single-element site 2 (pFIXluc/pMlox)]
activity on this sequence: active
